Measurements: PubChem BioAssay AID540256 (National Center for Advancing Translational Sciences (NCATS), 2011)
Among all 300,000 compounds or so, about 3,700 (1.2%) were called active. The inconclusive results got no clear call from the source; some entries with a clear call stand among them for comparison. Calls come from the whole dose curve; tested in HEK293 cells. A potency beside an inconclusive call is a rough fit, not a confirmed value.

Assay: qHTS for Inhibitors of binding or entry into cells for Lassa Virus; note: nearly all actives have a fitted effect of over 50% in size
Conditions: Lassa virus pseudotype entry inhibition, cell reporter; series mostly up to 37.9 µM
Potency is the fitted concentration of half-maximal effect.

Row | Compound | Potency
1 | Cc1cccc2c1N(Cc1ccccc1OCCC(C)C)C(=O)C2=O | inconclusive: 8.91 µM [inhibitor, partial curve, poor fit]
2 | CC(=O)c1ccc(NC(=O)c2cc(C)nc3c2c(C)nn3-c2ccc(C)cc2)cc1 | inconclusive: 11.2 µM [activator, partial curve]
3 | CCOC(=O)C1(CCOc2ccccc2)CCN(Cc2cc(OC)cc(OC)c2)CC1 | inconclusive: 17.8 µM [inhibitor, partial curve, poor fit]
4 | COc1cccc(-n2c(-c3ccc4[nH]c(C)c(C)c4c3)n[nH]c2=S)c1 | inconclusive: 11.2 µM [inhibitor, partial curve, poor fit]
5 | COc1ccc(CCN(C)C(=O)Cc2ccc(-c3ccccc3)cc2)cc1OC | inconclusive: 12.6 µM [inhibitor, partial curve, poor fit]
6 | COc1ccc(N(CC(=O)N2CCN(c3ccc(Cl)cc3)CC2)S(=O)(=O)c2c(C)n[nH]c2C)cc1 | inconclusive: 10 µM [inhibitor, partial curve, poor fit]
7 | CCN(CC)CCCNC(=O)c1nn(-c2ccccc2OC)c(=O)c2ccccc12 | inconclusive: 0.112 µM [inhibitor, full curve, poor fit]
8 | O=C(CSc1nc2ccccc2s1)NC1CCS(=O)(=O)C1 (configuration not stated) | inactive
9 | Cc1nc(Oc2ccc(S(=O)(=O)N3CCOCC3)cc2Cl)c2c3c(sc2n1)CCCC3 | inconclusive: 22.4 µM [inhibitor, single point]
10 | CC(C)(C)OC(=O)NCCC(=O)N/N=C/c1cccc2nccnc12 | inconclusive: 11.2 µM [inhibitor, partial curve, poor fit]
11 | Cc1c(C(=O)c2ccccc2)oc2ccc3ccccc3c12 | inconclusive: 35.5 µM [inhibitor, single point]
12 | COc1ccc(S(=O)(=O)N2CCCCC2)cc1NS(=O)(=O)c1ccccc1F | inconclusive: 5.62 µM [activator, full curve, poor fit]
13 | CCCCOCCCNC(=O)c1c(-c2ccccc2)noc1C | inconclusive: 6.31 µM [inhibitor, single point]
14 | O=C(CSc1ccccn1)Nc1ccc(F)c([N+](=O)[O-])c1 | inactive
15 | O=C(Nc1ccc(Br)cc1F)c1cc(S(=O)(=O)NC2CCCCC2)ccc1F | inconclusive: 14.1 µM [inhibitor, single point]
16 | CCN1C(=NCCCOC(C)C)NC(c2ccccc2)C(C(=O)OC)=C1C (configuration not stated) | inconclusive: 0.237 µM [activator, partial curve, poor fit]
17 | O=C(CNC(=O)c1ccc(Br)cc1)N/N=C/c1ccc[nH]1 | inconclusive: 12.6 µM [inhibitor, partial curve]
18 | O=C(CSC1=NCCS1)c1ccc(Cl)cc1 | inactive
19 | CC(C)CNC(=S)N1CCC(c2nc(-c3ccc(F)cc3)no2)CC1 | inactive
20 | Clc1ccccc1-c1nnc(COc2ccccc2)o1 | inconclusive: 7.94 µM [activator, single point]
21 | N#Cc1c(/N=C/N2CCCC2)oc(-c2ccccc2)c1-c1ccccc1 | inconclusive: 11.2 µM [inhibitor, single point]

Row | Compound | Potency
22 | Cc1ccc(NC(=O)C(=O)Nc2ccccn2)cc1 | active: 2.91 µM
23 | Cc1cc(C)cc(NC(=S)N(CCN(C)C)Cc2cccs2)c1 | inconclusive: 31.6 µM [inhibitor, single point]
24 | CCCCC(=O)Nc1ccc(NC(=O)c2ccc(C)c([N+](=O)[O-])c2)cc1OC | inconclusive: 5.62 µM [inhibitor, single point]
25 | CCOC(=O)c1oc2ccccc2c1CN1CCN(C)CC1 | inactive
26 | Cc1cccc(NC2=C/C(=N/S(=O)(=O)c3cccs3)c3ccccc3C2=O)c1 | active: 3.16 µM
27 | O=C(CN1C(=O)c2cccc3cccc1c23)Nc1ccc(S(=O)(=O)Nc2nccs2)cc1 | inactive
28 | O=C1CN(C(=O)COC(=O)c2cccc(S(=O)(=O)NCc3ccccc3)c2)c2ccccc2N1 | inactive
29 | Fc1ccc(Sc2ccccc2CNC2=NCCN2)cc1 | inconclusive: 0.461 µM [inhibitor, partial curve, poor fit]
30 | CCOc1ccc(S(=O)(=O)N(C)c2ccc(OCC(=O)NCC3CCCO3)cc2)cc1 (configuration not stated) | inconclusive: 11.2 µM [inhibitor, single point]
31 | COc1ccc(/C(C)=N/Nc2ccc(C(=O)O)cc2)cc1OC | inconclusive: 0.112 µM [activator, full curve, poor fit]
32 | COc1ccc(Cl)cc1NC(=O)N(C)CCc1c(C)nn(C)c1C | inconclusive: 17.8 µM [activator, single point]
33 | Nc1ccc(-c2ncc(-c3ccccc3)o2)cc1 | inconclusive: 0.891 µM [inhibitor, full curve, poor fit]
34 | CCc1ccc(N(CC)C(=O)Cn2nc(Cc3cccnc3)c3ccccc3c2=O)cc1 | inactive
35 | CCOC(=O)c1cc(C)n(CC2CCC(C(=O)Nc3ccccc3OC)CC2)c1C (configuration not stated) | inactive
36 | Cc1cccc(Cn2c(=O)n(Cc3ccccc3)c(=O)c3c2c2cc(C)ccc2n3C)c1 | inconclusive: 35.5 µM [activator, single point]
37 | Cc1cc(C)n2nc(SCCCC(=O)c3ccc(F)cc3)nc2n1 | inconclusive: 0.631 µM [inhibitor, partial curve, poor fit]
38 | Cc1cc2c(cc1C)NC(c1ccccn1)C1=C(CC(C)(C)CC1=O)N2 (configuration not stated) | inconclusive: 14.1 µM [activator, partial curve, poor fit]
39 | Cn1c(=O)n(C)c2cc([N+](=O)[O-])c(N3CCN(C(=O)c4cccc(Cl)c4)CC3)cc21 | inconclusive: 35.5 µM [inhibitor, single point]
40 | O=[N+]([O-])c1ccc(CS(=O)c2ccccc2)cc1 (configuration not stated) | inactive
41 | O=C(OCC1CC(c2ccccc2Cl)=NO1)c1ccc(Br)cc1 (configuration not stated) | inconclusive: 1.26 µM [inhibitor, single point]
42 | O=S(=O)(N[C@H](CO)c1ccccc1)c1ccc(Br)cc1F | inconclusive: 11.2 µM [inhibitor, single point]

Excerpt: compounds 33 to 35
Row | Compound | Potency
33 | Nc1ccc(-c2ncc(-c3ccccc3)o2)cc1 | inconclusive: 0.891 µM [inhibitor, full curve, poor fit]
34 | CCc1ccc(N(CC)C(=O)Cn2nc(Cc3cccnc3)c3ccccc3c2=O)cc1 | inactive
35 | CCOC(=O)c1cc(C)n(CC2CCC(C(=O)Nc3ccccc3OC)CC2)c1C (configuration not stated) | inactive
